This note sets out measurements from the supplement of paper PMC11060735.

“And” between values parts separate entries of the source, which are not always exact repeats. Equal entries are not always repeated. Structures can show the parent of a compound that is named as a salt. ± gives the standard deviation of the averaged measurements. Whole data set: some 1,800 compounds, median “GFP- (p16Ink4a-) cell count relative to negative-control wells” near 0.99, cut for the lowest 2% near 0.5. The list shows a part of the results.

The experiment relates to mouse p16Ink4a+/- lung fibroblasts (INKBRITE, bleomycin-injured). As to the kind of experiment: GFP- (p16Ink4a-) cell count relative to negative-control wells (fold of vehicle); higher = more p16Ink4a- cells surviving. Particulars: 1 µM; 3 days.
As to `COc1cc2nc(N3CCN(C(=O)c4ccco4)CC3)nc(N)c2cc1OC` [Prazosin], the GFP- is 1.13.

The compound `COc1cc(CCc2cc(NC(=O)c3ccc(N4C[C@@H](C)N[C@@H](C)C4)cc3)[nH]n2)cc(OC)c1` came in with a GFP- of 1.04. As to `CNC(=O)c1cc(Oc2ccc(NC(=O)Nc3ccc(Cl)c(C(F)(F)F)c3)cc2)ccn1` [Sorafenib], the GFP- was 1.12 and 1.1.

Regarding `COc1c(O)cc2c(c1O)[C@@H]1O[C@H](CO)[C@@H](O)[C@H](O)[C@H]1OC2=O` [Bergenin], the GFP- came to 0.998. The figure for `CCCCOc1ccc(C(=O)Nc2ccc(F)cc2F)cc1` is 0.879; for `C[C@]12C=CC(=O)N[C@@H]1CC[C@@H]1[C@@H]2CC[C@]2(C)[C@@H](C(=O)Nc3cc(C(F)(F)F)ccc3C(F)(F)F)CC[C@@H]12` [Dutasteride] it is 0.977; for `CCOC(=O)c1c(CSc2ccccc2)n(C)c2cc(Br)c(O)c(CN(C)C)c12` [Arbidol HCl] it is 0.933.

`CC(C)CN(C[C@@H](O)[C@H](Cc1ccccc1)NC(=O)O[C@H]1CCOC1)S(=O)(=O)c1ccc(N)cc1` [Amprenavir] yielded a GFP- of 1.01. The figure for `COCCO/C(O)=C1\C(C)=NC(C)=C(C(=O)OC/C=C/c2ccccc2)C1c1cccc([N+](=O)[O-])c1` (stereo not given) [Cilnidipine] is 0.955; for `N#C/C(=C\c1ccc(O)c(O)c1)C(=O)NCc1ccccc1` [Tyrphostin Ag 490] it is 1 ± 0.042.

Regarding `OC[C@H]1O[C@@H](c2ccc(Cl)c(Cc3ccc(O[C@H]4CCOC4)cc3)c2)[C@H](O)[C@@H](O)[C@@H]1O` [Empagliflozin], the GFP- worked out at 0.943. The figure for `Oc1ccc(/C=C/c2cc(O)cc(O)c2)cc1` [Resveratrol] is 1.04 ± 0.1; for `CNC(=O)c1ccc(N2C(=S)N(c3cnc(C#N)c(C(F)(F)F)c3)C(=O)C23CCC3)cc1F` it is 0.891. With `COc1cc2nc(N3CCN(C(=O)C4COc5ccccc5O4)CC3)nc(N)c2cc1OC` (stereo not given) [Doxazosin], the GFP- worked out at 0.969. For the compound `C[C@@H]1CN(CC(=O)Nc2ccc3c(c2)Cc2cccc(-c4cc(=O)cc(N5CCOCC5)o4)c2S3)C[C@H](C)O1`, the GFP- stood at 0.898. Compound `Nc1ccn([C@@H]2O[C@H](CO)[C@@H](O)C2(F)F)c(=O)n1` [Gemcitabine] registered a GFP- of 0.724. Regarding `O=C(O)/C=C/c1ccc(O)c(O)c1` [Caffeic Acid], the GFP- was 0.903. The result for `NC(=O)c1ncn([C@@H]2O[C@H](CO)[C@@H](O)[C@H]2O)c1N` [Acadesine] reads 1.12; that for `CCCc1nc(C)c2c(O)nc(-c3cc(S(=O)(=O)N4CCN(CC)CC4)ccc3OCC)nn12` [Vardenafil], 0.975; that for `Cc1ccc([C@@H]2O[C@H](CO)[C@@H](O)[C@H](O)[C@H]2O)cc1Cc1ccc(-c2ccc(F)cc2)s1` [Canagliflozin], 1.06.
